{
  "source": "paper PMC7546003",
  "binders": {"B1": {"name": "NOX4 (protein, UniProt Q9JHI8 1-578)", "chain": "MAVSWRSWLANEGVKHLCLLIWLSLNVLLFWKTFLLYNQGPEYYYIHQMLGLGLCLSRASASVLNLNCSLILLPMCRTVLAYLRGSQKVPSRRTRRLLDKSKTLHITCGVTICIFSGVHVAAHLVNALNFSVNYSEDFLELNAARYQNEDPRKLLFTTIPGLTGVCMVVVLFLMVTASTYAIRVSNYDIFWYTHNLFFVFYMLLLLHVSGGLLKYQTNVDTHPPGCISLNQTSSQNMSIPDYVSEHFHGSLPRGFSKLEDRYQKTLVKICLEEPKFQAHFPQTWIWISGPLCLYCAERLYRCIRSNKPVTIISVINHPSDVMELRMIKENFKARPGQYIILHCPSVSALENHPFTLTMCPTETKATFGVHFKVVGDWTERFRDLLLPPSSQDSEILPFIHSRNYPKLYIDGPFGSPFEESLNYEVSLCVAGGIGVTPFASILNTLLDDWKPYKLRRLYFIWVCRDIQSFQWFADLLCVLHNKFWQENRPDFVNIQLYLSQTDGIQKIIGEKYHTLNSRLFIGRPRWKLLFDEIAKCNRGKTVGVFCCGPSSISKTLHSLSNRNNSYGTKFEYNKESFS"}},
  "biological_target": "T1, cytochrome b245 light chain/p22^phox (mouse (endogenous in RPE-choroid tissue of C57BL/6 mice)) (UniProt Q61462)",
  "T1 sequence": "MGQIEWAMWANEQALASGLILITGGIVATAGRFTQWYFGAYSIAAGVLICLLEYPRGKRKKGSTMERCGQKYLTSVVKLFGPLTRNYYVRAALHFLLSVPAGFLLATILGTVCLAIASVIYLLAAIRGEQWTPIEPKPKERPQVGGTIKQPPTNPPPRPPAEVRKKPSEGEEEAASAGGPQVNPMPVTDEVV",
  "assay": "co-IP; Pierce Co-Immunoprecipitation Kit; endogenous proteins, mouse tissue taken 4 days after intravitreal injection of Aβ1-40 or PBS; antibodies for immunoprecipitation the same as for Western blot (p22^phox ab75941, NOX4 PA5-72816)",
  "note": "Results are given in words; binding and its absence hold for the method and conditions named. Binding seen in cells or lysates may run through a third protein. Some binding calls cover weakened binding; strength is not graded here.",
  "data": [
    {"binder": "B1", "values": [
      {"measurement": "binding", "result": "binds"}
    ]}
  ]
}
